EP4201483A1, “LPL1 DERIVED IMMUNE ENHANCING PEPTIDES” (priority 2021, dated 2023)
These are yes or no findings as the source states them, for the method shown. Some entries that bind do so weakly or less than the wild type.

Target: human heat shock protein Hsp90α (human) (UniProt P07900)
Assay: dot blot assay, direct interaction with Hsp90α

B1: Lpl1 native protein (267 aa), Staphylococcus aureus USA300 (protein)
chain: CGKGNETKEDSKEEQIKKSFAITLDMYPIKNLEDLYDKEGYRDSEFKKGDKGMWTIYTDFAKSNKPGELDDEGMVLNLDRNTRTAKGHYFVTTFYRNGKLPDEKNYKIEMKNNKIILLDEVKDDKLKQKIENFKFFGQYANLKELRKYNNGDVSINENVPSYDVEYKMSNKDEIVKELRSRYNISTEKSPILKMHIDGDLKGSSVGYRKLEIDFSKRENSKLSVIEFLSYKPAKK
binding: binds
